From patent US9555086B2 (The Regents of the University of Michigan, priority 2010, dated 2017)
Numbered stars: 1 amine (or outer) side, 2 acyl side, 3 side chain; on linkers, the order of the positions; unused ones are H or OH. Bridge positions count the residues as written; N and C are the ends. Square brackets hold non-standard residues; d marks the D form. CO = O=C([*:1])[*:2]; Nlys = NCCCCNCC(=O)O

Assay: general procedure: Fmoc solid-phase peptide synthesis; Rink amide MBHA resin; HBTU/DIPEA; HATU/DIPEA
Settings: whole synthesis

For “H-W[Nlys]QKR[Nlys]A-NH2 (linker 2-6 via CO; SMILES C[C@H](NC(=O)CN1CCCCNC(=O)NCCCCN(C(=O)[C@@H](N)Cc2c[nH]c3ccccc23)CC(=O)N[C@@H](CCC(N)=O)C(=O)N[C@@H](CCCCN)C(=O)N[C@@H](CCCNC(=N)N)C1=O)C(N)=O)”, the “final HPLC purity” value was >95%.
